Results published in article PMC8259991, “Transgenerational inheritance of centromere identity requires the CENP-A N-terminal tail in the C. elegans maternal germ line” (PLoS Biology, 2021).
Results are given in words; binding and its absence hold for the method and conditions named. For some of these results: Binding seen in cells or lysates may run through a third protein. Some results given as binding are weak or reduced against the parent protein; the word gives no strength. Sequences can lack the tags named with a protein. Values belong to the binder of their own block, whether it stands above or below them.

Chains of the proteins cited; added tags and fusions are not shown. Lines headed by an entry give the natural chain unless they say otherwise; changes in a name come on top. A line that says so, or that is headed by a name, gives the form on record, which may keep a tag or linker. Residues count along the entry.
UniProt P34470: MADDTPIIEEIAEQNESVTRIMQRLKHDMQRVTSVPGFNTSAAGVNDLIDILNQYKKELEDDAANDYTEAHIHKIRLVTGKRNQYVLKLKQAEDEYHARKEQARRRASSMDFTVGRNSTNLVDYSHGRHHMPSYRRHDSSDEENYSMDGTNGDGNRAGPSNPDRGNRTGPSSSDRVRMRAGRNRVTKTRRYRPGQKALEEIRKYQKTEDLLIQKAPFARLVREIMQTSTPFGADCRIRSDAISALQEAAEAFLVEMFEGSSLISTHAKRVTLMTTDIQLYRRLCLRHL
CENP-A aa 1-122, yeast two-hybrid DNA-binding domain fusion: residues 1-122 of P34470
HA-tagged CENP-A^aa100-287 (CENP-A Δ-tail), from C. elegans embryos: residues 100-287 of P34470

Columns and labels:
[1] = biological target: full-length CENP-A (HCP-3), yeast two-hybrid DNA-binding domain fusion (C. elegans) (UniProt P34470); test: two-hybrid; GAL4-based system, yeast strain MAV203; KNL-2 cDNA fragments in pDEST22 (activation domain), CENP-A cDNA fragments in pDEST32 (DNA binding domain); growth on SD-LTH with 5 mM 3AT
[2] = biological target: HA-tagged CENP-A^aa100-287 (CENP-A Δ-tail), from C. elegans embryos (C. elegans) (UniProt P34470); test: co-IP; anti-HA magnetic beads on C. elegans embryonic extracts (lysis buffer with 500 mM NaCl, 1% NP-40, 0.25% deoxycholate), 2 h or overnight at 4°C; KNL-2 detected with anti-OLLAS
[3] = biological target: HA-tagged CENP-A full-length (FL), from C. elegans embryos (C. elegans) (UniProt P34470); test: as above
[4] = biological target: CENP-A aa 1-122, yeast two-hybrid DNA-binding domain fusion (C. elegans) (UniProt P34470); test: two-hybrid; GAL4-based system, yeast strain MAV203; KNL-2 cDNA fragments in pDEST22 (activation domain), CENP-A cDNA fragments in pDEST32 (DNA binding domain); growth on SD-LTH with 5 mM 3AT

binding [1]: binds weakly
B1: full-length KNL-2, yeast two-hybrid activation domain fusion (protein, UniProt O44548 1-877)
chain: MGDTEIVPLRVQNVLDSEIIRLNLWSMKFNATSFKLEGFVRNEEGTMMQKVCSEFICRRFTSTLLFDVSGRFFDLVGQIDREYQQKMGMPSRIIDEFSNGIPENWADLIYSCMSANQRSALRPIQQAPKEPIRTRTEPIVTLADETELTGGCQKNSENEKERNRREREEQQTKERERRLEEEKQRRDAEAEAERRRKEEEELEEANYTLRAPKSQNGEPITPIRFTRGHDNGGAKKVFIFEQTPVRKQGPIASSTPQQKQRLADGANNQIPPTQKSQDSVQAVQPPPPRPAARNAQFASDADLFAVPKAPPSKSVRNLAASNVDIFADVDSVLDTFHFESTPGRVRKPGRRNVSSPSPEPRHRSSSRDGYEQSRYSQRYEHDNSRWSRHNATYRRHEDESRMSRKRSIVRDDFEYSRRHDDGARRRDYYDADIQGDSKRYRGRDASSSSGRSVRFEEEHRRHGDEYRDPRGPRDYNDYGRRRNHANSRSGEDEEKLNAIVRREKELRNRLQKSQKASSSSYRHRSNSSDAEESLNEWDIENQELLDNSMMFGDGIPKRSNARKDKFVKKQATRSKPANSTKSPAQARKKKRASLEDNRDLNDSIACNRPRRSCVTPVAKKITWRKQDLDRLKRVIALKKPSASDADWTEVLRLLAKEGVVEPEVVRQIAITRLKWVEPEQNEEVLKQVEEVEQKRRRGAVARVKENVKMHEELREGGNHRAEDLQSGVESMEDYQPEDVAADQSLLALRTPIVTKKRGGTRASIMPKPVEDSPMSRGNNSTFNSPRLEQTKAKDIETNFKYVQHLSMMQARPSSRLKKSSSMNNSTYRGNKNTSISLEKGTQKALKIINRGTTIHEDDENEDNDDDDDMREEDTSIY

binding [2]: binds weakly
binding [3]: binds
B2: OLLAS-tagged KNL-2, from C. elegans embryos (protein, UniProt O44548 1-877)
chain: B1 chain

binding [4]: binds
B3: KNL-2 central region (aa 269-470), yeast two-hybrid activation domain fusion (domain or fragment, UniProt O44548 269-470)
chain: QIPPTQKSQDSVQAVQPPPPRPAARNAQFASDADLFAVPKAPPSKSVRNLAASNVDIFADVDSVLDTFHFESTPGRVRKPGRRNVSSPSPEPRHRSSSRDGYEQSRYSQRYEHDNSRWSRHNATYRRHEDESRMSRKRSIVRDDFEYSRRHDDGARRRDYYDADIQGDSKRYRGRDASSSSGRSVRFEEEHRRHGDEYRDPR
